Like-named read-outs stand apart in the source and are kept apart here.
Conditions: for Steady State Delivery Rate ± sd: HM-HCl 0.1M, no enhancer
Procedure: Either pig skin or human cadaver skin was used. It was placed in the cell dermal side down.
The receptor solution completely filled the receptor compartment.
All skin was stored frozen.
Each experiment consisted of three phases totaling 66 hours. […]
The injection volume was 10 »l.

CN1CC[C@]23c4c5ccc(O)c4O[C@H]2C(=O)CC[C@H]3[C@H]1C5.Cl [HM-HCl, hydromorphone hydrochloride, reference compound]
Steady State Delivery Rate ± sd (E/W 0/100, current 0 mA): 9 ± 2 µg/h
Steady State Delivery Rate ± sd (E/W 0/100, current 1 mA): 1235 ± 151 µg/h
typical iontophoretic steady state delivery rate (current of 1 mA, without the addition of a fatty acid, human skin or pig skin): about 1200 »g/hr

Source: patent EP0525063B1, “Use of specific fatty acids in the manufacture of a medicament for their Iontophoresis delivery” (priority 1990, dated 1991)
